No constants are given. Whether binding was seen depends on the method and setting. Some results given as binding are weak or reduced against the parent protein; the word gives no strength. Where a sequence is shown, tags or fusion partners need not be part of it.

The target of this test is T1, GFP-Aurora-A (stably expressed in HeLa cells) (human), O14965.
T1 chain: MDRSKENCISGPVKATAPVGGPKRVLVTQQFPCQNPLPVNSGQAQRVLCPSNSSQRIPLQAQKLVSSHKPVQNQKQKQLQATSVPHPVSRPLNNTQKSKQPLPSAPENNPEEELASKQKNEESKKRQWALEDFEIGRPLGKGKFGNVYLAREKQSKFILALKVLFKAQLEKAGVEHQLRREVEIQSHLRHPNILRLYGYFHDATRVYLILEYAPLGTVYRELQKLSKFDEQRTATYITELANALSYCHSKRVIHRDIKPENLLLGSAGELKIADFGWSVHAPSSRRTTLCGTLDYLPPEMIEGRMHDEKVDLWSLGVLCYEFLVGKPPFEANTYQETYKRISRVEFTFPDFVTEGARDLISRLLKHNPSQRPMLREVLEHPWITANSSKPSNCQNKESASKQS
Kind of test: recruitment of a purified fluorescent protein to coated beads, seen by fluorescence microscopy; GFP beads coated with GFP-Aurora-A and its binding adaptors from lysate of mitotic HeLa cells; purified mCherry-tagged proteins added; only the binder purified. Conditions: remark: other sources report otherwise.

B1: His-mCherry-Aurora-A, O14965 1-403 (protein)
chain: MDRSKENCISGPVKATAPVGGPKRVLVTQQFPCQNPLPVNSGQAQRVLCPSNSSQRIPLQAQKLVSSHKPVQNQKQKQLQATSVPHPVSRPLNNTQKSKQPLPSAPENNPEEELASKQKNEESKKRQWALEDFEIGRPLGKGKFGNVYLAREKQSKFILALKVLFKAQLEKAGVEHQLRREVEIQSHLRHPNILRLYGYFHDATRVYLILEYAPLGTVYRELQKLSKFDEQRTATYITELANALSYCHSKRVIHRDIKPENLLLGSAGELKIADFGWSVHAPSSRRTTLCGTLDYLPPEMIEGRMHDEKVDLWSLGVLCYEFLVGKPPFEANTYQETYKRISRVEFTFPDFVTEGARDLISRLLKHNPSQRPMLREVLEHPWITANSSKPSNCQNKESASKQS
Turning to B1, the binding result was “binds”.

(Values after paper PMC11090908.)
